Experimental data: PubChem BioAssay AID743121 (NCATS, 2013)

Screen: 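Knock-downs that sensitise breast cancer cells to camptothecin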 (primary screen)
System: MDA-MB-231 cells, a human breast cancer line
Reagents: single siRNA against human genes, 20 nM siRNA (0.8 pmol per well)
Duration: 120 h (drug added 48 h after transfection, read 72 h later)
Conditions: camptothecin 20 nM (about EC30) for 72 h; vehicle 0.1% DMSO in parallel plates
Measurement: 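CellTiter-Glo ATP signal, scaled to control siRNA as percent viability; sensitisation given as log2 of untreated divided by camptothecin-treated viability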
Direction: log2 vehicle/camptothecin viability: higher = stronger sensitisation to camptothecin; viability with camptothecin: higher = more viable cells
Units: viability with camptothecin in % of control
Rule for the call: 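Each gene scored by redundant siRNA activity (RSA) over its individual siRNA ratios; a gene is called active at p < 0.001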
In all, the deposit lists about 26,000 reagents; below is a random part of them. 167 of them (0.63%) count as active. 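Calls are per gene from RSA p-values that are not deposited; an individual active-marked siRNA can sensitise only weakly.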 The numbers tell different reagents against one gene apart. Not all columns of the deposit are shown. Reagent sequences are not shown.

With knock-down of CACNA2D2 #1, the record shows log2 vehicle/camptothecin viability 0.374; viability with camptothecin 56.3; inactive.
For CACNA2D2 #2, the entry reads log2 vehicle/camptothecin viability -0.549; viability with camptothecin 81.3; inactive.
Against CACNA2D2 #3, the entry reads log2 vehicle/camptothecin viability -0.0152; viability with camptothecin 89.8; inactive.
Against CACNA2D2 #4, the values are log2 vehicle/camptothecin viability -0.137; viability with camptothecin 84.8; inactive.
After knock-down of KIFC2 (kinesin family member C2) #1 the results were log2 vehicle/camptothecin viability -0.215; viability with camptothecin 99.1; inactive.
With knock-down of KIFC2 (kinesin family member C2) #2, the record shows log2 vehicle/camptothecin viability -0.888; viability with camptothecin 73.2; inactive.
KIFC2 (kinesin family member C2) #3 gave log2 vehicle/camptothecin viability 0.328; viability with camptothecin 54.8; inactive.
KIFC2 (kinesin family member C2) #4 gave log2 vehicle/camptothecin viability 0.148; viability with camptothecin 82.7; inactive.
After knock-down of PKIA (cAMP-dependent protein kinase inhibitor alpha) #1, the screen gave log2 vehicle/camptothecin viability 0.145; viability with camptothecin 75.9; inactive.
Knock-down of PKIA (cAMP-dependent protein kinase inhibitor alpha) #2 resulted in: log2 vehicle/camptothecin viability -0.695; viability with camptothecin 82.9; inactive.
With knock-down of PKIA (cAMP-dependent protein kinase inhibitor alpha) #3, the screen gave log2 vehicle/camptothecin viability 0.0951; viability with camptothecin 64.2; inactive.
Knock-down of PKIA (cAMP-dependent protein kinase inhibitor alpha) #4 came out at: log2 vehicle/camptothecin viability 0.0623; viability with camptothecin 88; inactive.
After knock-down of FXYD5 (FXYD domain containing ion transport regulator 5) #1, the record shows log2 vehicle/camptothecin viability -0.433; viability with camptothecin 53.9; inactive.
FXYD5 (FXYD domain containing ion transport regulator 5) #2 showed log2 vehicle/camptothecin viability -0.37; viability with camptothecin 56.3; inactive.
Knock-down of FXYD5 (FXYD domain containing ion transport regulator 5) #3 came out at: log2 vehicle/camptothecin viability -0.0239; viability with camptothecin 80.4; inactive.
After knock-down of FXYD5 (FXYD domain containing ion transport regulator 5) #4, the record shows log2 vehicle/camptothecin viability 0.451; viability with camptothecin 24.7; inactive.
Silencing of HNRNPD (heterogeneous nuclear ribonucleoprotein D) #1 gave: log2 vehicle/camptothecin viability -0.278; viability with camptothecin 130; inactive.
After knock-down of HNRNPD (heterogeneous nuclear ribonucleoprotein D) #2, the screen gave log2 vehicle/camptothecin viability 0.432; viability with camptothecin 57.2; inactive.
After knock-down of HNRNPD (heterogeneous nuclear ribonucleoprotein D) #3, the record shows log2 vehicle/camptothecin viability -0.157; viability with camptothecin 104; inactive.
With knock-down of HNRNPD (heterogeneous nuclear ribonucleoprotein D) #4, the screen gave log2 vehicle/camptothecin viability -0.239; viability with camptothecin 85.5; inactive.
SLAMF8 (SLAM family member 8) #1 scored log2 vehicle/camptothecin viability 0.011; viability with camptothecin 110; inactive.
For SLAMF8 (SLAM family member 8) #2, the values are log2 vehicle/camptothecin viability -0.273; viability with camptothecin 105; inactive.
SLAMF8 (SLAM family member 8) #3 gave log2 vehicle/camptothecin viability 0.12; viability with camptothecin 85.4; inactive.
SLAMF8 (SLAM family member 8) #4 gave log2 vehicle/camptothecin viability -0.488; viability with camptothecin 129; inactive.

Looked up above.
HNRNPD (heterogeneous nuclear ribonucleoprotein D) #1, viability with camptothecin = 130
For “viability with camptothecin”, KIFC2 (kinesin family member C2) #2 has 73.2
Under “viability with camptothecin”, FXYD5 (FXYD domain containing ion transport regulator 5) #3 shows 80.4
Under “viability with camptothecin”, SLAMF8 (SLAM family member 8) #2 is entered as 105
